{"sequences": {"note": "By UniProt entry, the sequences of proteins in these tests, tags left out. Where a name states a change or a piece, a line headed by the entry shows the natural chain unless it says otherwise.", "UniProt Q15643": "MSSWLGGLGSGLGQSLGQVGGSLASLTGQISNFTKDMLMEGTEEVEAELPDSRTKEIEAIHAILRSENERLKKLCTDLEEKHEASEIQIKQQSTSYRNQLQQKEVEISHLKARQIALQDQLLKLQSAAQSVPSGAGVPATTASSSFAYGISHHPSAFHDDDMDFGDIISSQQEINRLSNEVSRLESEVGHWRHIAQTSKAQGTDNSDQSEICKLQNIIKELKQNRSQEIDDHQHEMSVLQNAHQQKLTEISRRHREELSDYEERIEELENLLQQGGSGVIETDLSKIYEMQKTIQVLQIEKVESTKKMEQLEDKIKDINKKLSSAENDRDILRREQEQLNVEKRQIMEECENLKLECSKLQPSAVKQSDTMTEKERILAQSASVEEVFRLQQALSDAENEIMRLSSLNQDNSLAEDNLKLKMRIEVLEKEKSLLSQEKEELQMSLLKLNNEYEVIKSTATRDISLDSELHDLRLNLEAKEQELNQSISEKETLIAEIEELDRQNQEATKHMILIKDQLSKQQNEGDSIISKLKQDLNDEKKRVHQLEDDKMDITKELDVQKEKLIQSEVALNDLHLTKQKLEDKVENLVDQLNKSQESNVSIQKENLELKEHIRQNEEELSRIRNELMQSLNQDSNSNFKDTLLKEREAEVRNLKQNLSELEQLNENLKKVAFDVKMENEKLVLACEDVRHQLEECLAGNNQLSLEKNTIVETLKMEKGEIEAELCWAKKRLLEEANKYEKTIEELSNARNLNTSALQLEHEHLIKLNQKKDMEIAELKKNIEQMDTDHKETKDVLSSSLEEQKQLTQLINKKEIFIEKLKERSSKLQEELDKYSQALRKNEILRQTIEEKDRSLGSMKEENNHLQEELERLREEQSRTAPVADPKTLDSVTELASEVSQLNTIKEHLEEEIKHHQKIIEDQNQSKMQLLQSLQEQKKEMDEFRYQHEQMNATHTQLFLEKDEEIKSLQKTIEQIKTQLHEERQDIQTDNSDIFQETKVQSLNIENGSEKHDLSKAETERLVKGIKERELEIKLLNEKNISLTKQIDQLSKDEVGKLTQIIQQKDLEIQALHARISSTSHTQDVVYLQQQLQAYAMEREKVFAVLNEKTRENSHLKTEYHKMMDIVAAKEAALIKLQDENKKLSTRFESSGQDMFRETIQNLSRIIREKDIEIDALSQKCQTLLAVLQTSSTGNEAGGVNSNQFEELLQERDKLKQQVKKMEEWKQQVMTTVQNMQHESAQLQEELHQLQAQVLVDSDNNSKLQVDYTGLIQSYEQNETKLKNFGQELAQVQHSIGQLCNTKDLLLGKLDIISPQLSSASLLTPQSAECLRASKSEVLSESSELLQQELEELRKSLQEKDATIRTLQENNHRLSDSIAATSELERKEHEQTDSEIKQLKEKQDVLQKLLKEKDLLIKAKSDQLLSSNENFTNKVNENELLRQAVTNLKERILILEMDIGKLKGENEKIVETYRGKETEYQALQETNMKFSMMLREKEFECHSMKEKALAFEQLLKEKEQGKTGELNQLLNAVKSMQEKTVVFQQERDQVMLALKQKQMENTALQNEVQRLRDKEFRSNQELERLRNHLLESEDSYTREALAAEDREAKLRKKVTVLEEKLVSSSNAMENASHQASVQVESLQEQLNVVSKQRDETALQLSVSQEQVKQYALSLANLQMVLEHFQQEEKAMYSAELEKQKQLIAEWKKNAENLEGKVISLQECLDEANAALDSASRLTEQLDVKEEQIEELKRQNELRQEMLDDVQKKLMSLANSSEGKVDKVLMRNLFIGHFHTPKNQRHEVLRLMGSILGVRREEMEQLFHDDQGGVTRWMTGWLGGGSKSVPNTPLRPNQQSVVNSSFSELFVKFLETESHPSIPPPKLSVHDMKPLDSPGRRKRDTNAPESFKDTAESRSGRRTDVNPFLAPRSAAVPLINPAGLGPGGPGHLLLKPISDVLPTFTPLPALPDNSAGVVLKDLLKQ", "UniProt P29144": "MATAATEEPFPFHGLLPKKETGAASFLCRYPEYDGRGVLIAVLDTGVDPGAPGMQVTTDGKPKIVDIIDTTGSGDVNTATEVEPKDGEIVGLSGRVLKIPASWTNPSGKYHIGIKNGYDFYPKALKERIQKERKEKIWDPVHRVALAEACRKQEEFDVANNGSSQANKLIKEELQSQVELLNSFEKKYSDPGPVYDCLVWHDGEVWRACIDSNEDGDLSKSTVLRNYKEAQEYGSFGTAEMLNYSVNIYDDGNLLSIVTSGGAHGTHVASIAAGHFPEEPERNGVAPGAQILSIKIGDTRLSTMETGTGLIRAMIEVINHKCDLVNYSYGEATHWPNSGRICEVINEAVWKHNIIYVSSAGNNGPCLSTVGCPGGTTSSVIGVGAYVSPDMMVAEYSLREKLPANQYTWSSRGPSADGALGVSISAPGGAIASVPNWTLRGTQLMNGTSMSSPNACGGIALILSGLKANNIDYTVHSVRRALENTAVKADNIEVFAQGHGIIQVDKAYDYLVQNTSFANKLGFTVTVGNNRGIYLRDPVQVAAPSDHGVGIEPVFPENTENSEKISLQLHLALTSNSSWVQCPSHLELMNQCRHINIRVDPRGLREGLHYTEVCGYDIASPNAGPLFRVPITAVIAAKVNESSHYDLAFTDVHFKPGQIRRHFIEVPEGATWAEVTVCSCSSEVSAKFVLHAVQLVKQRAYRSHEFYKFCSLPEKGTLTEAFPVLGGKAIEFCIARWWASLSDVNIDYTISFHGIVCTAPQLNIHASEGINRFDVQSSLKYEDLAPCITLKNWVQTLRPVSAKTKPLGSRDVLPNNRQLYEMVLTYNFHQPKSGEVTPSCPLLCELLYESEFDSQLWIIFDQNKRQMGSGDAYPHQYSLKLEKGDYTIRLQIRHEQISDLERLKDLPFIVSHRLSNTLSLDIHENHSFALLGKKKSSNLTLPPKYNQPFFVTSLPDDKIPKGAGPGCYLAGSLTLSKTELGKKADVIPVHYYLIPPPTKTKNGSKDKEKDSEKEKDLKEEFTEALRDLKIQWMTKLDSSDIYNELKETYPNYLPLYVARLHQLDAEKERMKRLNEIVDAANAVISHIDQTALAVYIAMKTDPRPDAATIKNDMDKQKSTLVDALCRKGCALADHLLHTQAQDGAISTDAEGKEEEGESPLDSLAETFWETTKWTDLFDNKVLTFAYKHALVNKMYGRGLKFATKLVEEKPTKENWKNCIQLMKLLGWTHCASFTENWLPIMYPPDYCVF", "UniProt O43715": "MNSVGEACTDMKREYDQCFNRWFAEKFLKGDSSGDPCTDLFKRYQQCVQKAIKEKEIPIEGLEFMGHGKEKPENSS", "UniProt Q96S44": "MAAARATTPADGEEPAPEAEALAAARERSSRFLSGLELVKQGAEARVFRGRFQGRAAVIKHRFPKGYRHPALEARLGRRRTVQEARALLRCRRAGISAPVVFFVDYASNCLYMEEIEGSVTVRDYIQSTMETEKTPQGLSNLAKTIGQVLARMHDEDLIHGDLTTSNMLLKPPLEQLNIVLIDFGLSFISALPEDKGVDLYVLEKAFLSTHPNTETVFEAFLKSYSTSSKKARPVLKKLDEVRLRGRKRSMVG", "UniProt Q02880": "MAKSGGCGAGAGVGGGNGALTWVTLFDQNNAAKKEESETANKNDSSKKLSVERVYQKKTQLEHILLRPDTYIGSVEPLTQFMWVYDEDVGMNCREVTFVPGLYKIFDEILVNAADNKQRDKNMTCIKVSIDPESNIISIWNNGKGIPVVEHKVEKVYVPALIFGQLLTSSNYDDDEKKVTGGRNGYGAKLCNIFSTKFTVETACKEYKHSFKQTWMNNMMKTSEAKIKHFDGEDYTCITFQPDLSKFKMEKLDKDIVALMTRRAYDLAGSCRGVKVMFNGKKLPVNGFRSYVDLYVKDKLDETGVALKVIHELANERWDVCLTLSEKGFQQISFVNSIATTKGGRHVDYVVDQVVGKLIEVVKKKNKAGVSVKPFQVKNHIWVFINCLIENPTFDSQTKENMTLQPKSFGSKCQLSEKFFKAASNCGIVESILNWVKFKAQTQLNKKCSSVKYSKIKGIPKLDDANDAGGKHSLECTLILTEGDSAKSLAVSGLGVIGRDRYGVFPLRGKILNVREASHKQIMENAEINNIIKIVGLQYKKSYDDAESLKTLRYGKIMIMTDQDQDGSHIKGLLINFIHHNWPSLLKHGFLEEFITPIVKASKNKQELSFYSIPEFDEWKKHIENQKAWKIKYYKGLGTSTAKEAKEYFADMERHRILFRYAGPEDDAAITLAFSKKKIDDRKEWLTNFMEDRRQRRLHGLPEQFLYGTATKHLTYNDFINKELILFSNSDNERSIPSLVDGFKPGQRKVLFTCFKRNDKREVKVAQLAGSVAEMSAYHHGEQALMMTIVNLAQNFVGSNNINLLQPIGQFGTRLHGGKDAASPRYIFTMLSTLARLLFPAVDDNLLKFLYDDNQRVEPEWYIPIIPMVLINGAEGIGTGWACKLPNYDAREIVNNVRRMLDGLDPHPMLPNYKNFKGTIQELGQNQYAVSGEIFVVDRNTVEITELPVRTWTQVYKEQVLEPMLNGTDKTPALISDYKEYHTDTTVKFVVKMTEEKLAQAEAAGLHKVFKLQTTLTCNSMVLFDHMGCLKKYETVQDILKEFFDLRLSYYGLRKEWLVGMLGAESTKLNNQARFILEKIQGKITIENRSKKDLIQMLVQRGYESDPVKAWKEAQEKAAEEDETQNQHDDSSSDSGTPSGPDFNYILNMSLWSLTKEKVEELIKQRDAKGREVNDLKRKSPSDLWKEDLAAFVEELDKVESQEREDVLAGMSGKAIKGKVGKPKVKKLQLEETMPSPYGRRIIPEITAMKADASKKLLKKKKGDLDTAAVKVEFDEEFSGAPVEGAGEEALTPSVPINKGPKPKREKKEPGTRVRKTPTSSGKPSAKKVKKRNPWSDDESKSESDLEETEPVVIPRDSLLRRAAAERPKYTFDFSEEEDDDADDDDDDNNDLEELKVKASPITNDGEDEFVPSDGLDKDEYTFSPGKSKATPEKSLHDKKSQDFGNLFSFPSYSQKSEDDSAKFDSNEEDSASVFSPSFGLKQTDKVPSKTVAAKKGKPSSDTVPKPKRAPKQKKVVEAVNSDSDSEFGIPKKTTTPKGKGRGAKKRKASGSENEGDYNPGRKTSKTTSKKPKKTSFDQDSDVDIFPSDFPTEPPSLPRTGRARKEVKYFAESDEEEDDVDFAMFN", "UniProt P11387": "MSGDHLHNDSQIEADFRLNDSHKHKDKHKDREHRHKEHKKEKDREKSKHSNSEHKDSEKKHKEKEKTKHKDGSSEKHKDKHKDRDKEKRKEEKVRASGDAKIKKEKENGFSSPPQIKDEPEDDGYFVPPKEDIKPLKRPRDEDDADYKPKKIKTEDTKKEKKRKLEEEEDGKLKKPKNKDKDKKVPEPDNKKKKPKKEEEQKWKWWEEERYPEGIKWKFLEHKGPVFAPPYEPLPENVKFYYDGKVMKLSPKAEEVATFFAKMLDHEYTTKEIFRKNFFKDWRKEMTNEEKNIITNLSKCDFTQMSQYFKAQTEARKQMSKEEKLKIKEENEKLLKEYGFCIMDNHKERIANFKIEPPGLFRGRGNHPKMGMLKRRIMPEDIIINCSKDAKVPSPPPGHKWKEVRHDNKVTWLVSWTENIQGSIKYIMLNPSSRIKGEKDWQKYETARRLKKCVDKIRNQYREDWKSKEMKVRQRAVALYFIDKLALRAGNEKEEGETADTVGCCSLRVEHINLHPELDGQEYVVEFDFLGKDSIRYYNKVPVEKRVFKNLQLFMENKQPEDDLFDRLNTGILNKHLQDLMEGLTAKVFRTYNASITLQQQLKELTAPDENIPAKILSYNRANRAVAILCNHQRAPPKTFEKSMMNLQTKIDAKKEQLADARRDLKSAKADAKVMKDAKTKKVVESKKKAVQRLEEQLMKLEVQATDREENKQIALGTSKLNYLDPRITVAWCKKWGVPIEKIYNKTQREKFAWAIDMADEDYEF", "UniProt P20333, whole entry, looked up": "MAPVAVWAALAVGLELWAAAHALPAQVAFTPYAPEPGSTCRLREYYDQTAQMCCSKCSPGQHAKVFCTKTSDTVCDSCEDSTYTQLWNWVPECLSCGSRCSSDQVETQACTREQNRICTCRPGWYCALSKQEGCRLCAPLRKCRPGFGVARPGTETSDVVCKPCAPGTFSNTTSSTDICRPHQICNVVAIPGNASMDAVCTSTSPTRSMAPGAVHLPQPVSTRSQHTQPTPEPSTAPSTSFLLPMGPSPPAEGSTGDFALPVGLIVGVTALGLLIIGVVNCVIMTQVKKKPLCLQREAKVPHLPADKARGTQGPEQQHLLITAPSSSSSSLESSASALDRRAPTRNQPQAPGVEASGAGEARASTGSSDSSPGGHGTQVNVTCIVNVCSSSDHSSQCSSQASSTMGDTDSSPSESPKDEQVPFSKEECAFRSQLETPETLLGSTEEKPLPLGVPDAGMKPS", "UniProt Q9NS69": "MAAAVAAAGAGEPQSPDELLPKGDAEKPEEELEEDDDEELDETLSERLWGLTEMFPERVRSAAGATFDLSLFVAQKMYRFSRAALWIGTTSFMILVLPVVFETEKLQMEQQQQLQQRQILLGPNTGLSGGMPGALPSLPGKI"}, "source": "the supplement of paper PMC10849652", "note": "The other results are listed elsewhere or left out."}
{"compound": "CC1=C(C2=C(C=C1)C(=O)C3=CC=CC=C3N2CCCN)C", "test": "log2 fold change, soluble protein after heating vs DMSO (PISA); higher = thermal stabilisation; K562 cells, 10 uM, 30 min; active = over 0.2 and 3.5 SD of the protein, either way, in both replicates (recomputed)", "outline": "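Values are thermal stability changes relative to control samples and are taken from duplicates. They are stated as log2 fold changes. Before quantification by TMTpro 16plex LC-MS/MS with equalised channel sums, K562 cells at 2×10^6 cells/mL were treated with 10 μM compound for 30 min, heated in aliquots for 3 min across 48°C-58°C, pooled, extracted in PBS with 0.5% NP-40 at 4°C, and centrifuged at 21,000xg for 90 min to give the soluble supernatant.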"}
{"target": "TRIM25 (UniProt Q14258)", "log2 fold change": "inactive: 0.108"}
{"target": "TOMM34 (UniProt Q15785)", "log2 fold change": "inactive: 0.079"}
{"target": "TRIP11 (UniProt Q15643)", "log2 fold change": "inactive: 0.038"}
{"target": "TRIM24 (UniProt O15164)", "log2 fold change": "inactive: 0.015"}
{"target": "TPP2 (UniProt P29144)", "log2 fold change": "inactive: 0.052"}
{"target": "TSEN34 (UniProt Q9BSV6)", "log2 fold change": "inactive: 0.072"}
{"target": "TRIAP1 (UniProt O43715)", "log2 fold change": "inactive: 0.131"}
{"target": "TP53RK (UniProt Q96S44)", "log2 fold change": "inactive: 0.049"}
{"target": "TRIP13 (UniProt Q15645)", "log2 fold change": "inactive: -0.012"}
{"target": "TRIO (UniProt O75962)", "log2 fold change": "inactive: 0.027"}
{"target": "TSC22D2 (UniProt O75157)", "log2 fold change": "inactive: -0.069"}
{"target": "TRAPPC10 (UniProt P48553)", "log2 fold change": "inactive: -0.029"}
{"target": "TRMT112 (UniProt Q9UI30)", "log2 fold change": "inactive: 0.167"}
{"target": "TOMM70 (UniProt O94826)", "log2 fold change": "inactive: 0.009"}
{"target": "TOMM40 (UniProt O96008)", "log2 fold change": "inactive: 0.019"}
{"target": "TOP2B (UniProt Q02880)", "log2 fold change": "inactive: -0.455"}
{"target": "TNIK isoform 6 (UniProt Q9UKE5)", "log2 fold change": "inactive: 0.081"}
{"target": "TOR4A (UniProt Q9NXH8)", "log2 fold change": "inactive: 0.021"}
{"target": "TOP1 (UniProt P11387)", "log2 fold change": "inactive: 0.382"}
{"target": "TPM4, A0A2R8Y5V9", "log2 fold change": "inactive: 0.03"}
{"target": "TRAF6 (UniProt Q9Y4K3)", "log2 fold change": "inactive: -0.061"}
{"target": "TRRAP (UniProt Q9Y4A5)", "log2 fold change": "inactive: 0.034"}
{"target": "TOP3B (UniProt O95985)", "log2 fold change": "inactive: 0.028"}
{"target": "TNFRSF1B (UniProt P20333)", "log2 fold change": "inactive: -0.089"}
{"target": "TPT1 (UniProt P13693)", "log2 fold change": "inactive: 0.12"}
{"target": "TRMT61B (UniProt Q9BVS5)", "log2 fold change": "inactive: 0.134"}
{"target": "TOLLIP (UniProt Q9H0E2)", "log2 fold change": "inactive: 0.075"}
{"target": "TOR1AIP2 (UniProt Q8NFQ8)", "log2 fold change": "inactive: -0.011"}
{"target": "TPM3 isoform 4 (UniProt P06753)", "log2 fold change": "inactive: -0.032"}
{"target": "TOR3A (UniProt Q9H497)", "log2 fold change": "inactive: -0.004"}
{"target": "TOMM22 (UniProt Q9NS69)", "log2 fold change": "inactive: 0.229"}
{"target": "TSC22D4 (UniProt Q9Y3Q8)", "log2 fold change": "inactive: -0.027"}
{"target": "TSEN15 (UniProt Q8WW01)", "log2 fold change": "inactive: 0.057"}
